# Test results taken from PMC11247502.
# These are yes or no findings as the source states them, for the method shown. In cells and extracts the contact can be indirect. These calls come from enrichment with a bait or labelling near it, and not all partners need be listed.
# B1: ataxia-related protein ATXN2 (protein, UniProt O70305 1-1285)
# chain: MRSSTAAVQRPAAGDPEPRRPAGWAARRSLPRTARRGGRGGAVAYPSAGPPPRGPGAPPRGPRSPPCASDCFGSNGHGASRPGSRRLLGVCGPPRPFVVVLLALAPAATPARACPPGVRASPPRSGVSSSARPAPGCPRPACEPVYGPLTMSLKPQPQPPAPATGRKPGGGLLSSPGAAPASAAVTSASVVPAPAAPVASSSAAAGGGRPGLGRGRNSSKGLPQPTISFDGIYANVRMVHILTSVVGSKCEVQVKNGGIYEGVFKTYSPKCDLVLDAAHEKSTESSSGPKREEIMESVLFKCSDFVVVQFKDTDSSYARRDAFTDSALSAKVNGEHKEKDLEPWDAGELTASEELELENDVSNGWDPNDMFRYNEENYGVVSTYDSSLSSYTVPLERDNSEEFLKREARANQLAEEIESSAQYKARVALENDDRSEEEKYTAVQRNCSDREGHGPNTRDNKYIPPGQRNREVLSWGSGRQSSPRMGQPGPGSMPSRAASHTSDFNPNAGSDQRVVNGGVPWPSPCPSHSSRPPSRYQSGPNSLPPRAATHTRPPSRPPSRPSRPPSHPSAHGSPAPVSTMPKRMSSEGPPRMSPKAQRHPRNHRVSAGRGSMSSGLEFVSHNPPSEAAAPPVARTSPAGGTWSSVVSGVPRLSPKTHRPRSPRQSSIGNSPSGPVLASPQAGIIPAEAVSMPVPAASPTPASPASNRALTPSIEAKDSRLQDQRQNSPAGSKENVKASETSPSFSKADNKGMSPVVSEHRKQIDDLKKFKNDFRLQPSSTSESMDQLLSKNREGEKSRDLIKDKTEASAKDSFIDSSSSSSNCTSGSSKTNSPSISPSMLSNAEHKRGPEVTSQGVQTSSPACKQEKDDREEKKDTTEQVRKSTLNPNAKEFNPRSFSQPKPSTTPTSPRPQAQPSPSMVGHQQPAPVYTQPVCFAPNMMYPVPVSPGVQPLYPIPMTPMPVNQAKTYRAGKVPNMPQQRQDQHHQSTMMHPASAAGPPIVATPPAYSTQYVAYSPQQFPNQPLVQHVPHYQSQHPHVYSPVIQGNARMMAPPAHAQPGLVSSSAAQFGAHEQTHAMYACPKLPYNKETSPSFYFAISTGSLAQQYAHPNAALHPHTPHPQPSATPTGQQQSQHGGSHPAPSPVQHHQHQAAQALHLASPQQQSAIYHAGLAPTPPSMTPASNTQSPQSSFPAAQQTVFTIHPSHVQPAYTTPPHMAHVPQAHVQSGMVPSHPTAHAPMMLMTTQPPGPKAALAQSALQPIPVSTTAHFPYMTHPSVQAHHQQQL
# Molecular target: EGFP-tagged human ATP1A3 fragment consisting of an intracellular loop (ICL), two transmembrane (T) domains and an extracellular loop (E) (ICL-TET-GFP) (human) (UniProt P13637)
# Assay: affinity purification with mass spectrometry; Lysate of Neuro2a cells stably expressing ICL-TET-GFP (GFP as control); anti-GFP antibody magnetic beads, overnight at 4°C; 0.5% Triton X-100, 150 mM NaCl, 20 mM Tris-HCl pH 7.5, 2 mM EDTA; 18 Coomassie bands cut, in-gel trypsin digestion, LC-MS/MS
binder,measurement,value
B1,binding,binds
